Results from publication doi:10.1101/2020.03.23.003210.

The chains behind the UniProt entries cited, without tags or fusion partners.
UniProt P30260, whole entry: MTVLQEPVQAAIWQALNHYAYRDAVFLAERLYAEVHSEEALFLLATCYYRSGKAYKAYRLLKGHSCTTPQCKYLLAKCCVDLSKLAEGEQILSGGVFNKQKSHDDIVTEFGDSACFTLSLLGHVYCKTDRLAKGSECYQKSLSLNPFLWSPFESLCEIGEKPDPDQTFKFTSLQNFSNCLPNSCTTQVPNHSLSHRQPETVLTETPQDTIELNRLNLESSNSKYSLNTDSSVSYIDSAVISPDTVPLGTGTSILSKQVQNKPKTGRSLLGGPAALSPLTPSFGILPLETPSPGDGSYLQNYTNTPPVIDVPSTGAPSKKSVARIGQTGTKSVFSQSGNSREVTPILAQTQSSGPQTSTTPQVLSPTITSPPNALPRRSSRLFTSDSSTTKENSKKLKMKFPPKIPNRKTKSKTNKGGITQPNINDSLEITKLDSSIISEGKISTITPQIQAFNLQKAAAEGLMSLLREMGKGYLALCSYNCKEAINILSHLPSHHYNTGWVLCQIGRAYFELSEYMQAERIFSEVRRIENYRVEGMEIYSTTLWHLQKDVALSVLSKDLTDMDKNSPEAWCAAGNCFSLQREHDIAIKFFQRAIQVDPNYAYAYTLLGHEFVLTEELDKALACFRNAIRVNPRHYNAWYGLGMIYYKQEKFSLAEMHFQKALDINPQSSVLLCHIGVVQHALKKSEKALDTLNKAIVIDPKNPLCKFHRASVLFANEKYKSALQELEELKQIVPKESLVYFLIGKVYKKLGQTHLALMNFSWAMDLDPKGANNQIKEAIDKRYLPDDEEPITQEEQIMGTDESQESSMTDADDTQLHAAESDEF
UniProt Q9UJX6, whole entry: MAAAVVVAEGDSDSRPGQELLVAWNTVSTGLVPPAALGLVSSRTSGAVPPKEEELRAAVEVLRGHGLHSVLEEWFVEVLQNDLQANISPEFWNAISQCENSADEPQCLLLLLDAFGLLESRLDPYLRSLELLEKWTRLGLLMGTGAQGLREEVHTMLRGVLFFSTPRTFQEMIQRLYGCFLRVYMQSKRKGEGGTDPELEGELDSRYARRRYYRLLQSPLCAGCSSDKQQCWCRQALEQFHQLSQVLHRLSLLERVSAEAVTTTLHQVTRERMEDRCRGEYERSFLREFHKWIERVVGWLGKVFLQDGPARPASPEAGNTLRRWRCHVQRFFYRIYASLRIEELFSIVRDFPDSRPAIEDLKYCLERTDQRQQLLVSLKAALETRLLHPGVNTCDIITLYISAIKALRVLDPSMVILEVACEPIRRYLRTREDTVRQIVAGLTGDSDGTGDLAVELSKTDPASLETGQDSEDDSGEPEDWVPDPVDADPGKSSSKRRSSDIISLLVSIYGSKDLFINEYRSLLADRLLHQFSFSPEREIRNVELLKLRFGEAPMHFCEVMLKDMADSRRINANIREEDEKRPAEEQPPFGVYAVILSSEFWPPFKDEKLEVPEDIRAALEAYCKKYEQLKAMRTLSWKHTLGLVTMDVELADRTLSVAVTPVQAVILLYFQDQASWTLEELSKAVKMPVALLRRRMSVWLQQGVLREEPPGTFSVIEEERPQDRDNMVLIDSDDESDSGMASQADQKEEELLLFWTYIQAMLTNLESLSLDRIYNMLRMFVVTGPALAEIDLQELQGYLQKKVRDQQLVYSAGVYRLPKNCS

B1: Cep131 (protein, UniProt Q9UPN4 1-1083)
chain: MKGTRAIGSVPERSPAGVDLSLTGLPPPVSRRPGSAATTKPIVRSVSVVTGSEQKRKVLEATGPGGSQAINNLRRSNSTTQVSQPRSGSPRPTEPTDFLMLFEGSPSGKKRPASLSTAPSEKGATWNVLDDQPRGFTLPSNARSSSALDSPAGPRRKECTVALAPNFTANNRSNKGAVGNCVTTMVHNRYTPSERAPPLKSSNQTAPSLNNIIKAATCEGSESSGFGKLPKNVSSATHSARNNTGGSTGLPRRKEVTEEEAERFIHQVNQATVTIQRWYRHQVQRRGAGAARLEHLLQAKREEQRQRSGEGTLLDLHQQKEAARRKAREEKARQARRAAIQELQQKRALRAQKASTAERGPPENPRETRVPGMRQPAQELSPTPGGTAHQALKANNTGGGLPAAGPGDRCLPTSDSSPEPQQPPEDRTQDVLAQDAAGDNLEMMAPSRGSAKSRGPLEELLHTLQLLEKEPDVLPRPRTHHRGRYAWASEVTTEDDASSLTADNLEKFGKLSAFPEPPEDGTLLSEAKLQSIMSFLDEMEKSGQDQLDSQQEGWVPEAGPGPLELGSEVSTSVMRLKLEVEEKKQAMLLLQRALAQQRDLTARRVKETEKALSRQLQRQREHYEATIQRHLAFIDQLIEDKKVLSEKCEAVVAELKQEDQRCTERVAQAQAQHELEIKKLKELMSATEKARREKWISEKTKKIKEVTVRGLEPEIQKLIARHKQEVRRLKSLHEAELLQSDERASQRCLRQAEELREQLEREKEALGQQERERARQRFQQHLEQEQWALQQQRQRLYSEVAEERERLGQQAARQRAELEELRQQLEESSSALTRALRAEFEKGREEQERRHQMELNTLKQQLELERQAWEAGRTRKEEAWLLNREQELREEIRKGRDKEIELVIHRLEADMALAKEESEKAAESRIKRLRDKYEAELSELEQSERKLQERCSELKGQLGEAEGENLRLQGLVRQKERALEDAQAVNEQLSSERSNLAQVIRQEFEDRLAASEEETRQAKAELATLQARQQLELEEVHRRVKTALARKEEAVSSLRTQHEAAVKRADHLEELLEQHRRPTPSTK

Experiments:
APC3-BioID2 = APC3-BioID2 (UniProt P30260); assay: proximity labelling
BioID2-APC2 = BioID2-APC2 (UniProt Q9UJX6); assay: proximity labelling

Molecule	binding (APC3-BioID2)	binding (BioID2-APC2)
Cep152 (from UniProt O94986 1-1710)	binds	binds
Cep192 (from UniProt Q8TEP8 1-2537)	binds	binds
Cep350 (from UniProt Q5VT06 1-3117)	binds	binds
pericentriolar material 1 (PCM1) (from UniProt Q15154 1-2024)	no binding	no binding
B1	binds	binds

These are yes or no findings as the source states them, for the method shown. In cells and extracts the contact can be indirect. Here binding means that the protein was enriched with, or labelled near, the bait; the list need not be complete. A no says only that the protein was not detected with the bait.
